Reference: patent US20070196442A1, “Method for improving the oral administration of alpha-lipoic acid” (priority 2006, published 2007)

Experiment: double-blind, randomized comparative taste-test of oral alpha-lipoic acid solutions (throat irritation, overall liking)
Format: in vivo
Settings: individual subject ratings (one grid row per subject), nine designations, oral solution standardized to 0.5% w/v ALA

O=C([O-])CCCCC1CCSS1.[Na+] (centres unmarked) [Na-ALA]
OVERALL (Overall Liking): Dislike Mod; also recorded: Like Slightly; also recorded: Neither

NC(CO)(CO)CO.O=C(O)CCCCC1CCSS1 (centres unmarked) [TR-ALA, tris(hydroxymethyl) amino methane thioctate]
OVERALL (Overall Liking) (listed as ALA-TR): Dislike Mod; also recorded: Neither; also recorded: Like Slightly

“Also recorded” adds a separate entry of the source.
